From publication PMC10080908
No constants are given. Whether binding was seen depends on the method and setting.

Molecular target: T1, UBXN7-∆UAS (∆137-260) (human) (UniProt O94888)
T1 sequence: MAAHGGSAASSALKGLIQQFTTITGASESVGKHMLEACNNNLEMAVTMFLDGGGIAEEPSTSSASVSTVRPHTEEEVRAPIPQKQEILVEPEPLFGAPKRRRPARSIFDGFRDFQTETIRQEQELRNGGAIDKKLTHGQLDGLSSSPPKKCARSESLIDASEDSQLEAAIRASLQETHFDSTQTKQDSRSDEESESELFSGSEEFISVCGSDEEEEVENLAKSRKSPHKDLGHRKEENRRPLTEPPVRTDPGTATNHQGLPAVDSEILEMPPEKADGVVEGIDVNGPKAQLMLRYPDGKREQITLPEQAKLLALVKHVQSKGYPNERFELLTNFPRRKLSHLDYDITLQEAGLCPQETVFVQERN
Test: condition: 200 µM RNF111 RING domain titrated into 15 µM UBXN7-∆UAS; ITC; VP-ITC; 200 µM RNF111 RING domain injected (20 x 10 µl) into 10 µM UBXN7-WT or UBXN7-UAS, or into 15 µM UBXN7-∆UAS, in the cell; 25 °C; phosphate-buffered saline pH 7.4, 1 mM TCEP; single binding site model; both purified

binding: no binding
Substance: RNF111 RING domain (RNF111-RING, aa 895 to Cter) (human) (domain or fragment)
